Experiments:
Assay in all cases: microbe, parasite or virus in culture
Format in all cases: cell-based
[1] = test system: methicillin-susceptible S. aureus (SH1000); settings: Staphylococcus aureus, MSSA, read-out: Minimum Inhibitory Concentration MSSA
[2] = test system: community-acquired methicillin-resistant S. aureus (CA-MRSA; USA 300-0114); settings: Staphylococcus aureus, read-out: Minimum Inhibitory Concentration CA-MRSA
[3] = test system: hospital-acquired methicillin-resistant S. aureus (HA-MRSA; ATCC 33591); settings: Staphylococcus aureus, read-out: Minimum Inhibitory Concentration HA-MRSA
[4] = test system: Enterococcus faecalis (OG1RF); settings: read-out: Minimum Inhibitory Concentration E. faecalis
[5] = test system: Escherichia coli (MC4100); settings: read-out: Minimum Inhibitory Concentration E. coli
[6] = test system: Pseudomonas aeruginosa (PAO1); settings: PAO1, read-out: Minimum Inhibitory Concentration Pa

For `CCCCCCCCCCCCCCCC[n+]1ccccc1` [CPC, cetylpyridinium chloride, reference compound], which MIC [1] is on record?
Its MIC is 1 µM.

And the MIC [2]?
The MIC was 1 µM.

What about the MIC [3] of the same molecule?
The MIC was 2 µM.

And the MIC [4]?
The MIC was 250 µM.

And the MIC [5]?
Its MIC is 32 µM.

And the MIC [6]?
Its MIC is 250 µM.

Source: patent publication US20250034184A1, “QUATERNARY PHOSPHONIUM COMPOUNDS AND USES THEREOF” (Emory University, priority 2021, published 2025)
